The other results are listed elsewhere or left out.

Protein sequences, listed by entry. Tags and fused reporters are not part of them.
UniProt Q0JBA9, entry or part of it: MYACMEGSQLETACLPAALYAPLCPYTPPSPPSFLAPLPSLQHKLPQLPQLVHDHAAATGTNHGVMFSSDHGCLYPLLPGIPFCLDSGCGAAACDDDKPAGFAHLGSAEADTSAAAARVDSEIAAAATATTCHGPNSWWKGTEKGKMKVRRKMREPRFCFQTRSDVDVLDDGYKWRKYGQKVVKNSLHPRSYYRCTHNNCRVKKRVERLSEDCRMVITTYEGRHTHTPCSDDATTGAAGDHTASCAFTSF

The record followed here is paper PMC7819943, “Rice protein-binding microarrays: a tool to detect cis-acting elements near promoter regions in rice”.

The target of this test is OsWRKY34 (Oryza sativa, UniProt Q0JBA9 1-250). The experiment in a line: protein-binding microarray (RPBM); PBS, 2% BSA, 51.3 ng/ul salmon testes DNA, 50 uM zinc acetate, 200 nM TF, 25 C, 1 h; high values mean tight binding. To be noted: protein: recombinant; tags: N-terminal polyhistidine and DsRed monomer fusion (pET32a); label: CyDye5-dUTP incorporated in the synthesized complementary strand; 3' TTTTT single-stranded linker to array surface; dsDNA, one strand shown. In a few lines:
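Binding signal here means per-feature fluorescence intensity in arbitrary units. The values were read on an Axon 4000B scanner after a custom Agilent array, double-stranded by primer extension with Cy5-dUTP, was incubated with 200 nM protein at 25 °C for 1 h in PBS with 2% BSA, salmon testes DNA and 50 µM zinc acetate, then washed. The proteins were transcription factors with an N-terminal polyhistidine tag and DsRed, expressed in E. coli BL21-CodonPlus and purified on Ni–NTA.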
With “AACAGGATGGCTTCCGCGCAGGATCCCTTCTACATCGTCACGGAGTCACCTAGTGCAG”, the binding signal is 8810 fluorescence intensity (a.u.). For “ACGAATAGCAGCCTTATCATGTTTGTTTCTGTTTCCGAGACGGAGTCACCTAGTGCAG” the value was 8330 fluorescence intensity (a.u.); for “GCTTATTCTCTCAATTTCAATCGACCGCTGTTAGTATATCCGGAGTCACCTAGTGCAG”, 9540 fluorescence intensity (a.u.); for “AGCACTTCATCTTTTATGCAGATTCTATCAGTTGGAAAATCGGAGTCACCTAGTGCAG”, 8160 fluorescence intensity (a.u.). Next, “AACCTTAGCATAGTTGCATGTTATATACTTTTCCTGATAACGGAGTCACCTAGTGCAG”: 8470 fluorescence intensity (a.u.); “TACCTCCGTTTTCTAATAGATGACGCCGTTGACTTTTTCTCGGAGTCACCTAGTGCAG”: 20700 fluorescence intensity (a.u.). For “GGAGCTACTATATATTACCGGGGTCTAATGATCTGGATGACGGAGTCACCTAGTGCAG” the value was 8530 fluorescence intensity (a.u.); for “GTTTCTTTGCATGCCGACTCATTTCTCCTTTAGTTCAGTGCGGAGTCACCTAGTGCAG”, 9900 fluorescence intensity (a.u.). Turning to “CAATTGACGCGCCTCGGTATAACCTCACTAGCTGCGTCATCGGAGTCACCTAGTGCAG”, the binding signal is 8280 fluorescence intensity (a.u.). Next, “TATTTTCCCTTTCAATTTATCACTGATTTTGCTATGTTTACGGAGTCACCTAGTGCAG”: 9000 fluorescence intensity (a.u.). For “CCTCCATAGCCGCCGCCGCTCCACCACCTTGTGCGGACATCGGAGTCACCTAGTGCAG” the value was 9560 fluorescence intensity (a.u.); for “CCTCTCACTCTTTCTCACGCTTCACTCTCCTTCCTCCCACCGGAGTCACCTAGTGCAG”, 8660 fluorescence intensity (a.u.); for “CCACTCCTCCAATAGCTCATCTGCCGCCGCCGCGTCGTTCCGGAGTCACCTAGTGCAG”, 11900 fluorescence intensity (a.u.).

As for “TTAGGCTGACGCACGAGCAAACCACTTGATAGTTGACCGCCGGAGTCACCTAGTGCAG”, the binding signal is 8270 fluorescence intensity (a.u.). Next, “GAGTCTACCGTACGTCCTTCTCATATATACGTCGGCTTCCCGGAGTCACCTAGTGCAG”: 12600 fluorescence intensity (a.u.); “ACCTTACTTTACCATTGTGGGTGCTCTTAGGAGCAGCTGTCGGAGTCACCTAGTGCAG”: 8480 fluorescence intensity (a.u.). For “CAGCTACATGCCTCCTGTCTCTGTGCGTCATGCCGTCATCCGGAGTCACCTAGTGCAG” the value was 9300 fluorescence intensity (a.u.); for “ACCCTCCTGTTAATCTTTTCTAGATCCGCTCCTGCTTTTCCGGAGTCACCTAGTGCAG”, 8820 fluorescence intensity (a.u.); for “TCCCACGTACTATTTTTAAATTATTTTTTGCTGACTAGGACGGAGTCACCTAGTGCAG”, 8350 fluorescence intensity (a.u.).

With “ACGACTTAACCTCCTCCCTGCCTTGTCCTCATCGGCGCTTCGGAGTCACCTAGTGCAG”, the binding signal is 8120 fluorescence intensity (a.u.). For “CATCTCGTCTCCTCTGGTATCCCGGCGGCAGCCACCTTCTCGGAGTCACCTAGTGCAG” the value was 8980 fluorescence intensity (a.u.); for “TCTCGTCTCGGCGCCATGTGTTCTGTTCCGATATTTTTTGCGGAGTCACCTAGTGCAG”, 15600 fluorescence intensity (a.u.). “CTATTGTTTATTTTTCGCGTTCATAGGACCTACATTACCCCGGAGTCACCTAGTGCAG”: the binding signal is 14200 fluorescence intensity (a.u.). Regarding “TCTCTTTGATTATCTCACTATCTAGTTGGGTGCACAAACACGGAGTCACCTAGTGCAG”, the binding signal is 10100 fluorescence intensity (a.u.). Take “TTATCAATTTGTTATTGTGTGCCTCGGCTGATTCCTGGATCGGAGTCACCTAGTGCAG”: the binding signal was 8020 fluorescence intensity (a.u.).

As for “CTTTCTCGTGTCCTTAGATTTCTTGGTTCTTGGTAACGCCCGGAGTCACCTAGTGCAG”, the binding signal was 8840 fluorescence intensity (a.u.). As to “AGATTACATTTTATCAACGTGCATTCTACTCTTTTGATTACGGAGTCACCTAGTGCAG”, the binding signal is 10900 fluorescence intensity (a.u.). As to “GTCACTTTCACAATCCAAACAAGCACATTTGTCTGCTCTCCGGAGTCACCTAGTGCAG”, the binding signal is 8220 fluorescence intensity (a.u.). Next, “ATATAACGCCACTGCCTCGCCGCCGCTGCTACCACCTCTCCGGAGTCACCTAGTGCAG”: 9280 fluorescence intensity (a.u.). With “TTTCTCTCACGTTGACCCTTCACATAGCAGTGTTGTAGGACGGAGTCACCTAGTGCAG”, the binding signal is 9080 fluorescence intensity (a.u.). Turning to “TTCTCATCGTGTTGTTTTATTTATTATCCTGCGGGTTAATCGGAGTCACCTAGTGCAG”, the binding signal is 9200 fluorescence intensity (a.u.). For “GAAAATTTTTGGGTGTCACATCGGACGTTTGACCGGATGTCGGAGTCACCTAGTGCAG” the value was 9700 fluorescence intensity (a.u.); for “TCATTTGCTTTTCCTTTTTGCTGAATAGTGTGAACTTCCTCGGAGTCACCTAGTGCAG”, 10100 fluorescence intensity (a.u.). As for “TTGTTGTTTGGGTGAACCCGCGCGGCCATCATCGCACGCGCGGAGTCACCTAGTGCAG”, the binding signal is 8450 fluorescence intensity (a.u.). “GCGTCATTAACTTGTTTTGCCTGCCACCGCCTTCTTGGTTCGGAGTCACCTAGTGCAG”: the binding signal is 12300 fluorescence intensity (a.u.).

Consider “GTTCTATTCAGTTCTGCTACCTTTATCACATCACTTGCACCGGAGTCACCTAGTGCAG”, for which the binding signal was 9360 fluorescence intensity (a.u.). Consider “GCTTCTAGTTCATTTTCTAGATTCCGTAACTACAGCTTCTCGGAGTCACCTAGTGCAG”, for which the binding signal was 9280 fluorescence intensity (a.u.).

On to “GACGAAAGATCCACTTGCCGGTGACGACGTTGGCGCCATGCGGAGTCACCTAGTGCAG”, for which the binding signal is 8100 fluorescence intensity (a.u.). In the case of “TTGCCTCCAATTAACCCATTCAGTTTCTTCCGTATTTCTTCGGAGTCACCTAGTGCAG”, the binding signal was 8700 fluorescence intensity (a.u.). Take “ACATCCATTATGACTTCATCAGCCTTCAGCCTTCAAATTTCGGAGTCACCTAGTGCAG”: the binding signal was 8540 fluorescence intensity (a.u.).

For “TCCTCCTCGTGCGCTCTCTCTCTCTCTCTCTCACTCGCTCCGGAGTCACCTAGTGCAG”, the binding signal is 8050 fluorescence intensity (a.u.). For “ACTTAACAACGTCCATATACTCCTTTTGTTTTTACAATAACGGAGTCACCTAGTGCAG”, the binding signal was 9800 fluorescence intensity (a.u.).
